Results deposited as PubChem BioAssay AID504793 (Drosophila RNAi Screening Center, 2011).
The screen tested about 23,000 reagents; below is an unselected part of those that have a named target and a result. In the full data, 62 (0.27%) were called active. 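Calls come from follow-up tests whose scores are not deposited, so confirmed genes may have low counts here; counts are not normalised per plate.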 Raw values are not corrected between plates. Entries without a mark were called inactive. Names joined by + are all predicted targets of the reagent.

Screen: 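Genes required for cells to halt at G2/M after double-strand DNA breaks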 (primary screen)
System: Drosophila S2R+ cells
Reagents: long dsRNA against Drosophila genes, about 0.25 µg dsRNA per well
Time to read-out: 4 days of dsRNA, then 4 hours of drug before read-out
Treatment: doxorubicin 0.5 µM for 4 hours to cause double-strand breaks, in cells also given a low, harmless dose of dsRNA against nbs to sensitise the assay
Measurement: 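Mitotic index as the number of phospho-histone H3-positive cells in each well following doxorubicin, given as raw counts without normalisation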
Direction: mitotic cells: higher = more cells in mitosis, weaker G2 arrest
Call rule: 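Genes are called active only when high mitotic counts were reproduced with independent dsRNAs and mitosis was checked for delay without damage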
Calls: active = confirmed in follow-up tests; inactive = not confirmed

With Ufsp1 [SID104184750], what was measured?
mitotic cells, replicate 1: 7

What is on record for Ufsp1 [SID104205896]?
mitotic cells, replicate 1: 10

What is on record for CG32982 [SID104182469]?
mitotic cells, replicate 1: 8

With CG32982 [SID104183061], how do the results read?
mitotic cells, replicate 1: 4

With CG32982 [SID104201536], how do the results read?
mitotic cells, replicate 1: 6

For CG14102 [SID104189895], how do the results read?
mitotic cells, replicate 1: 6

What is on record for CG8195 [SID104186895]?
mitotic cells, replicate 1: 7

Which result is listed for Tre1 [SID104198518]?
mitotic cells, replicate 1: 6

With Tre1 [SID104206788], how do the results read?
mitotic cells, replicate 1: 5

For CG30056 [SID104201421], what does the deposit list?
mitotic cells, replicate 1: 6

What did the screen give for TwdlH [SID104194527]?
mitotic cells, replicate 1: 8

For Acbp2 [SID104190933], what does the deposit list?
mitotic cells, replicate 1: 8

What is on record for Acbp2 [SID104203150]?
mitotic cells, replicate 1: 12

Which result is listed for lncRNA:roX1 [SID104201515]?
mitotic cells, replicate 1: 12

What is on record for Pfas [SID104183272]?
mitotic cells, replicate 1: 2

What did the screen give for CG15577 [SID104197857]?
mitotic cells, replicate 1: 5

What did the screen give for Prosalpha3T [SID104195018]?
mitotic cells, replicate 1: 11

Which result is listed for CG31705 [SID104181783]?
mitotic cells, replicate 1: 3

For CG31705 [SID104208565], what does the deposit list?
mitotic cells, replicate 1: 9

For CG1552 [SID104199457], what was measured?
mitotic cells, replicate 1: 7

What did the screen give for CG1552 [SID104204078]?
mitotic cells, replicate 1: 5

With aos [SID104191115], what was measured?
mitotic cells, replicate 1: 5

What is on record for CG17883 [SID104187630]?
mitotic cells, replicate 1: 8

How did the screen score CG7512 [SID104190655]?
mitotic cells, replicate 1: 5

4 entries from above, set out differently:
Tre1 [SID104198518]
- mitotic cells, replicate 1: 6

Tre1 [SID104206788]
- mitotic cells, replicate 1: 5

CG30056 [SID104201421]
- mitotic cells, replicate 1: 6

TwdlH [SID104194527]
- mitotic cells, replicate 1: 8

The listing continues.
What did the screen give for CG13869 + CG11099 [SID104186220]?
mitotic cells, replicate 1: 5

What is on record for CG13869 + CG11099 [SID104203080]?
mitotic cells, replicate 1: 7

For Npc1b [SID104200280], what was measured?
mitotic cells, replicate 1: 4

What did the screen give for Not3 [SID104184700]?
mitotic cells, replicate 1: 4

What is on record for Not3 [SID104205868]?
mitotic cells, replicate 1: 7

How did the screen score SmD2 [SID104192328]?
mitotic cells, replicate 1: 6

For SmD2 [SID104207247], what does the deposit list?
mitotic cells, replicate 1: 6

For Rack1 [SID104183197], what does the deposit list?
mitotic cells, replicate 1: 3

With Rack1 [SID104202891], what does the deposit list?
mitotic cells, replicate 1: 8

For Tsp42Ej [SID104185905], how do the results read?
mitotic cells, replicate 1: 4

With Tsp42Ej [SID104206813], what does the deposit list?
mitotic cells, replicate 1: 4

For CG3045 [SID104184123], what was measured?
mitotic cells, replicate 1: 7

For Or67c [SID104191034], what was measured?
mitotic cells, replicate 1: 3

For CG15876 [SID104188276], what was measured?
mitotic cells, replicate 1: 6

For CG15876 [SID104206241], how do the results read?
mitotic cells, replicate 1: 10

What is on record for CG30121 (retired record) [SID104201212]?
mitotic cells, replicate 1: 7

How did the screen score CG30121 (retired record) [SID104205798]?
mitotic cells, replicate 1: 4

For mRpS24 [SID104207430], how do the results read?
mitotic cells, replicate 1: 4

For CG32459 [SID104191644], what does the deposit list?
mitotic cells, replicate 1: 6
